# Data: PubChem BioAssay AID1487 (National Center for Advancing Translational Sciences (NCATS), 2009)
# “And” between values parts separate entries of the source, which are not always exact repeats. Identical values can stand only once. The list shows a part of the results. The main result of the screen is listed elsewhere. These columns were measured beside it and carry no call. Most of these compounds were active or inconclusive in the main read-out, so they are no random draw. The note in brackets gives the kind of curve behind each potency; many fits are weak.
# Test: qHTS Assay for Modulators of Lamin A Splicing
# Details: HeLa LMNA splicing GFP/RFP minigene ratio, 48 h
# Procedure, shortened: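 S3 HeLa stable clones carrying a lamin A-EGFP splicing minigene plus DsRed2 were seeded at 600 cells/well in Opti-MEM with 2% FBS, pin-dosed and incubated 48 h at 37°C. Acumen cytometry (488 nm) gave the GFP/RFP total-intensity ratio.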
# [1] = measured here: RFP viability control channel
# [2] = measured here: GFP splicing reporter channel
Structure (SMILES),AC50 [1],AC50 [2]
CC(CCc1ccccc1)NC(=O)c1ccc(Cl)nc1 (stereo not drawn),"6.31 µM [falling, single point]",–
Cc1ccc(-c2ccc(C(=O)O)[nH]2)cc1,–,"35.5 µM [rising, single point]"
COc1ccc(COc2ccsc2C(=O)Nc2ccc(Cl)cc2)cc1,"14.1 µM [falling, single point]","35.5 µM [falling, single point]"
O=C(O)CP(=O)(O)O,"0.891 nM [falling, full curve, poor fit] and 398 nM [falling, full curve]","0.447 µM [falling, full curve, poor fit]"
Cc1cc(C)cc(N(C(=O)c2cc3ccccc3oc2=O)C2C=CS(=O)(=O)C2)c1 (stereo not drawn),"2 µM [rising, partial curve, poor fit]",–
CCOC(=O)c1cc(CC)sc1NC(=O)COc1ccc2c(C)cc(=O)oc2c1,"17.8 µM [rising, partial curve, poor fit]",–
O=[N+]([O-])c1c(NCCO)cc(Sc2nc3ccccc3s2)c2nonc12,"15.8 µM [falling, partial curve]","15.8 µM [falling, single point]"
O=C(CN1CCC(C(=O)c2ccc(Cl)cc2)CC1)Nc1ccc2c(c1)OCCO2,"22.4 µM [rising, single point]",–
O=S(=O)(c1ccc2c(c1)OCO2)N1CCN(c2nnnn2-c2ccccc2)CC1,"0.0501 µM [rising, full curve, poor fit]","0.0501 µM [rising, full curve, poor fit]"
CCN(C(=O)c1coc(=O)c(Br)c1)c1ccc2c(c1)OCO2,"2.82 µM [falling, partial curve]",–
Cc1ccc(S(=O)(=O)N(C)CC(=O)OCC(=O)N2CC(=O)Nc3ccccc32)cc1,"0.0251 µM [rising, full curve, poor fit]",–
COc1cccc(/C=N/Nc2ncnc3c2ncn3Cc2ccccc2)c1O,"5.62 µM [rising, full curve]","1.78 µM [rising, full curve, poor fit]"
N#Cc1nc(Cc2ccccc2)oc1N1CCC(Cc2ccccc2)CC1,"22.4 µM [rising, single point]","11.2 µM [rising, partial curve, poor fit]"
O=C(COc1ccc(Br)cc1)NNC(=S)NC(=O)c1ccccc1[N+](=O)[O-],"35.5 µM [rising, single point]","1 µM [falling, full curve, poor fit]"
CN(c1ccccc1)c1ccc(/C=N/NC(=O)CC#N)cc1,"4.47 µM [rising, partial curve, poor fit]",–
Cc1cccc(-n2c(C)cc(/C=N/NC(=O)c3cccc([N+](=O)[O-])c3C)c2C)c1,"35.5 µM [rising, single point]","35.5 µM [rising, single point]"
CCN(CC)c1ccc(/C=N/NC(=O)CCC(=O)NCc2ccccc2)c(O)c1,"6.31 µM [rising, partial curve]","3.98 µM [rising, partial curve, poor fit]"
C[N+]1(CCCCSc2ccc(O)cc2)CCCCC1,"11.2 µM [rising, partial curve]",–
Cc1ccc(C)c(CNC(=O)c2ccc3c(c2)nc2n3CCCCC2)c1,"12.6 µM [rising, single point]","14.1 µM [falling, partial curve]"
O=C(NCCc1cccs1)c1cccs1,–,"0.0112 µM [falling, full curve, poor fit]"
O=C1OC(CO)C(O)C(O)C1O (stereo not drawn),"0.794 µM [falling, partial curve, poor fit]","0.398 µM [falling, partial curve, poor fit]"
N#C/C(=C/c1ccc(N2CCCC2)c([N+](=O)[O-])c1)c1nc2ccccc2[nH]1,"0.126 µM [falling, full curve, poor fit]",–
O=C(CC(SCCO)c1ccc2c(c1)OCO2)c1ccco1 (stereo not drawn),"15.8 µM [falling, single point]","22.4 µM [falling, single point]"
CCCCNS(=O)(=O)c1ccc2nc(-c3cccnc3)cc(C(=O)NC3CC3)c2c1,"25.1 µM [falling, single point]","12.6 µM [falling, single point]"
Cc1ccc(NC(=O)C(=O)NCCN2CCN(C(=S)Nc3ccccc3)CC2)cc1,"31.6 µM [rising, single point]",–
CC1CN(CC(=O)Nc2cccc(C(=O)Nc3cccc(C(F)(F)F)c3)c2)CC(C)O1 (stereo not drawn),"14.1 µM [rising, single point]",–

Structure (SMILES),AC50 [1],AC50 [2]
O=c1oc2cc(O)ccc2cc1-c1nc2c(s1)CCc1ccccc1-2,"3.16 µM [falling, full curve]","3.16 µM [falling, full curve]"
COc1ccc(-c2csc3nc(-c4cccnc4)nc(N4CCC(C(N)=O)CC4)c23)cc1OC,"35.5 µM [rising, single point]",–
O=C(CSC1=NCCS1)N1CCN(c2ccccc2)CC1,"14.1 µM [rising, partial curve]",–
Cn1c(=O)c2c(ncn2CCNC2=NCCCCC2)n(C)c1=O,"2.82 µM [rising, full curve, poor fit]","0.0126 µM [rising, full curve, poor fit]"
Cc1cn([C@H]2C[C@H](N=[N+]=[N-])[C@H](CO)O2)c(=O)[nH]c1=O,"31.6 µM [rising, single point]","35.5 µM [rising, single point]"
CC(C)(C)n1ncc2c(=O)n(CC(=O)NCc3ccccc3)cnc21,"25.1 µM [rising, partial curve]",–
CC(C)CNc1oc(-c2ccccc2Cl)nc1C#N,"0.501 µM [falling, full curve]","0.501 µM [falling, full curve, poor fit]"
CC(C)CCNC(=O)CSc1nc2ccccc2nc1Cc1ccccc1,"0.1 µM [rising, full curve, poor fit]","0.2 µM [rising, partial curve]"
COc1ccc(C(=O)/C=C/c2cc(C(=O)O)cc3c2OCOC3)c(O)c1,"35.5 µM [falling, single point]","35.5 µM [falling, single point]"
CCOC(=O)c1ccc2c(c1)N(C(CC)C(=O)Nc1ccccc1OC)C(=O)c1ccccc1S2 (stereo not drawn),"35.5 µM [rising, single point]","31.6 µM [rising, single point]"
CC(=O)c1sc(NC(=O)COc2ccc([N+](=O)[O-])cc2)nc1C,"0.0501 µM [falling, full curve, poor fit]",–
Cc1c(Nc2nc3ccccc3nc2NS(=O)(=O)c2cccs2)c(=O)n(-c2ccccc2)n1C,"6.31 µM [falling, single point]","6.31 µM [falling, single point]"
C/C(Cl)=C\Cn1c(O)c(N=NC(N)=S)c2cc(Br)ccc21,–,"3.55 µM [rising, partial curve]"
CCn1c(SCCOc2ccc(Cl)cc2)nnc1-c1cccs1,"22.4 µM [rising, single point]","14.1 µM [rising, single point]"
CCCCNS(=O)(=O)c1ccc2nc(-c3cccs3)cc(C(=O)NCC(OC)OC)c2c1,"0.282 µM [falling, partial curve]",–
Cc1ccc2nc(NS(C)(=O)=O)sc2c1,"8.91 µM [rising, partial curve, poor fit]","14.1 µM [rising, partial curve, poor fit]"
CC(C)(C)NC(=O)C(c1ccco1)N(Cc1ccc2c(c1)OCO2)C(=O)Cn1nnc2ccccc21 (stereo not drawn),–,"15.8 µM [rising, single point]"
Cc1cccc(N=Nc2c(C)nn(-c3ccccc3)c2N)c1C,"35.5 µM [rising, single point]",–
O=[N+]([O-])c1ccc2nc(-[n+]3c(-c4ccccc4)cc(-c4ccccc4)cc3-c3ccccc3)[nH]c2c1,"11.2 µM [rising, partial curve]","0.447 µM [rising, full curve, poor fit]"
Cc1ccc(NC(=O)CN2CCc3ccccc3C2)cc1S(=O)(=O)N1CCOCC1,"14.1 µM [rising, partial curve]","14.1 µM [rising, single point]"
O=C(C1CCCO1)N1CCN(C(=S)Nc2cccc(Cl)c2)CC1 (stereo not drawn),"35.5 µM [rising, single point]",–
Cc1cc(C)c2c(N)c3cccc(C)c3nc2n1,"35.5 µM [falling, single point]",–
CC(=O)OCC(=O)[C@H]1CC[C@H]2[C@@H]3CCC4=CC(=O)CC[C@]4(C)[C@H]3CC[C@]12C,"3.98 µM [rising, partial curve] and 35.5 µM [falling, single point]","5.62 µM [rising, full curve]"
CCn1c(SCC(=O)N2CCCc3ccccc32)nnc1-c1c[nH]c2ccccc12,"14.1 µM [rising, single point]",–
C/C(=N\NC(=O)c1cccc(N2CCCC2=O)c1)c1ccc(N)cc1,"6.31 µM [falling, full curve, poor fit]","4.47 µM [falling, single point]"
